Data reported in the supplement of paper PMC6078165.
Values are relative to the signal before dosing, not to a vehicle control; the signal also falls without drug.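 Fibroblast labels name human fibroblasts: mostly primary ones from tissues such as uterus (C12385, HUF), lung (H6013), bone (Hs27A), adrenal (HADF) and skin (WS1), plus mammary HMF and breast cancer-associated Hs343T. The cancer cells are basal-like or mesenchymal-like triple-negative breast cancer lines. The paper calls a changed response a hit when it shifts by more than 3x the replicate standard deviation. The tissue of the other fibroblasts is not given here.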

System: MDAMB468
Experiment: relative JC-1 red fluorescence (viability) vs pre-drug, coculture with fibroblast (fraction); higher = more viable cancer cells
Conditions: 10 µM
Experimental: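 JC-1 labelled TNBC cells cocultured 1:1 (1,500 cells each) with CellTrace Violet stained primary or stromal fibroblasts in 384-well plates in FluoroBrite medium, treated with one of 42 anticancer drugs at 0.1, 1, 10 or 100 uM. JC-1 red fluorescence (mitochondrial integrity in cancer cells only) was read by plate reader every 8 h for 72 h. Values are normalised to each well's pre-drug value. The stock of one drug was tenfold lower, so its dose labels may be too high.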

CS(=O)(=O)CCNCc1ccc(-c2ccc3ncnc(Nc4ccc(OCc5cccc(F)c5)c(Cl)c4)c3c2)o1 [Lapatinib]
relative JC-1 red fluorescence
Conditions	8 h	16 h	24 h	32 h	40 h	48 h	56 h	64 h	72 h
coculture fibroblast: C12385	0.687	0.5833	0.548	0.515	0.502	0.50263	0.506	0.525	0.55
coculture fibroblast: H6013	0.746	0.69	0.669	0.711	0.691	0.697	0.698	0.704	0.736
coculture fibroblast: H6019	0.854	0.797	0.81	0.84	0.864	0.846	0.832	0.816	0.813
coculture fibroblast: H6076	0.8042	0.706	0.613	0.605	0.575	0.585	0.569	0.561	0.606
coculture fibroblast: H6231	0.867	0.902	0.848	0.789	0.8686	0.869	0.849	0.863	0.917
coculture fibroblast: HADF	0.681	0.606	0.561	0.572	0.529	0.526	0.518	0.498	0.485
coculture fibroblast: HCFa	0.773	0.707	0.701	0.754	0.733	0.756	0.757	0.775	0.794
coculture fibroblast: HCPF	0.884	0.946	0.934	0.9118	0.87146	0.8384	0.7911	0.7725	0.749
coculture fibroblast: HHSteC	0.754	0.723	0.707	0.715	0.684	0.701	0.673	0.662	0.681
coculture fibroblast: HMF	0.893	0.962	0.939	0.911	0.834	0.8301	0.7716	0.751	0.731
coculture fibroblast: HPFa	0.819	0.781	0.791	0.797	0.806	0.843	0.833	0.871	0.858
coculture fibroblast: HUF	0.757	0.627	0.557	0.529	0.505	0.497	0.511	0.538	0.55
coculture fibroblast: Hs5	0.823	0.714	0.59	0.57	0.523	0.505	0.476	0.466	0.4956
coculture fibroblast: Hs27A	0.695	0.568	0.509	0.507	0.468	0.475	0.464	0.4593	0.48026
coculture fibroblast: Hs343T	0.867	0.7284	0.73	0.724	0.67	0.717	0.719	0.728	0.713
coculture fibroblast: WS1	0.6685	0.56931	0.562	0.5588	0.544	0.5287	0.5437	0.536	0.5497
